{
  "source": "patent US20250262203A1",
  "about": "“METHOD FOR TREATING CALCIFIC HEART VALVE DISEASE(CHVD)” (UNION HOSPITAL TONGJI MEDICAL COLLEGE HUST, priority 2024, published 2025)",
  "key": {"[1]": {"test_system": "osteoclasts", "assay": "Drug screening of 198 potential NLRP3 inhibitors / 12 calcium channel blockers on osteoclasts (overall effect, osteoclast function)", "assay_type": "cell-based", "settings": "mouse osteoclasts"}, "[2]": {"test_system": "cathepsin K", "assay": "Drug screening on osteoclasts: cathepsin K expression by fluorescent antibody, high-content fluorescence microscopy", "assay_type": "cell-based", "settings": "mouse osteoclasts, clustering and concentration gradient supplementation experiments"}, "[3]": {"test_system": "spontaneously hypertensive rats, birenal-clip hypertensive rats, deoxycorticosterone acetate hypertensive rats", "settings": "cited from earlier work"}, "[4]": {"test_system": "osteoclasts", "assay": "RNAseq of osteoclasts after drug intervention, enrichment of differentially expressed genes", "assay_type": "cell-based, mouse", "settings": "10 mM stock diluted 1:1000, intervention 3 d"}, "[5]": {"test_system": "NLRP3", "assay": "Drug screening on osteoclasts: NLRP3 expression by fluorescent antibody, high-content fluorescence microscopy", "assay_type": "cell-based", "settings": "mouse osteoclasts, clustering and concentration gradient supplementation experiments"}, "[6]": {"test_system": "renal hypertensive dogs", "settings": "cited from earlier work"}},
  "note": "For at least one compound, name, drawing or mass did not settle the structure.",
  "data": [
    {"smiles": "COC(=O)C1=C(C)NC(C)=C(C(=O)OCCN2CCN(C(c3ccccc3)c3ccccc3)CC2)C1c1cccc([N+](=O)[O-])c1", "note": "(centres unmarked) [manidipine]", "values": [
      {"measurement": "osteoclast function in drug screening", "setting": "[1]", "value": "effectively restore an osteoclast function"},
      {"measurement": "tissue proteinase K expression in osteoclasts", "setting": "[2]", "value": "upregulated"},
      {"measurement": "hypotensive effect compared with nicardipine and nifedipine", "setting": "[3]; comparison with nicardipine and nifedipine", "value": "stronger effect"},
      {"measurement": "hypotensive effect", "setting": "[3]; spontaneously hypertensive, birenal-clip hypertensive, deoxycorticosterone acetate hypertensive rats", "value": "dose-dependent hypotensive effect"},
      {"measurement": "lysosomal function-related pathways (RNAseq)", "setting": "[4]", "value": "significantly upregulated"},
      {"measurement": "osteoclast formation pathway (RNAseq)", "setting": "[4]", "value": "significantly upregulated"},
      {"measurement": "NLRP3 expression in osteoclasts", "setting": "[5]", "value": "inhibiting"},
      {"measurement": "hypotensive effect", "setting": "[6]", "value": "dose-dependent hypotensive effect"}
    ]}
  ]
}
